PubChem BioAssay AID1259254, NCATS, 2017
Shown is a random part of about 59,000 reagents. About 1,550 of all reagents (2.6%) count as active. 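G2 share is only a proxy for re-replication; each gene was hit by three separate siRNAs, and active genes were retested.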 A number with no mark means an inactive call. The numbers tell different reagents against one gene apart. Further read-outs or replicates are left out here. Not given: the amount of reagent.

Aim: 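Gene knock-downs that lead to re-replication, shown by excess G2 DNA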 (primary screen)
Cell system: human HCT116 colorectal cancer cells
Reagent: single siRNA against human genes
Time to read-out: 3 days
Measurement: 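Nuclei stained with Hoechst and imaged; cell-cycle phase assigned by DNA content; G2 share scaled per plate, non-targeting siRNA 0%, GMNN siRNA 100%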
Direction: G2 robust z-score and G2 cells, % of GMNN control: higher = more G2 cells, more excess DNA replication
Active means: 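An siRNA counts as active if its G2 robust z-score lies at least 5 MADs above the screen median; here such calls match roughly 38% of GMNN control or more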

Silencing of GOLIM4 #1 resulted in: G2 robust z-score -0.727; G2 cells, % of GMNN control -2.15.
After knock-down of GOLIM4 #2, the screen gave G2 robust z-score -1.01; G2 cells, % of GMNN control -4.15.
Depletion of GOLIM4 #3 resulted in: G2 robust z-score -0.385; G2 cells, % of GMNN control 0.261.
Depletion of SCAMP2 #1 gave: G2 robust z-score -0.742; G2 cells, % of GMNN control -2.26.
With knock-down of SCAMP2 #2 the results were G2 robust z-score -0.379; G2 cells, % of GMNN control 0.298.
With knock-down of SCAMP2 #3, the screen gave G2 robust z-score -0.926; G2 cells, % of GMNN control -3.55.

2 entries already listed, arranged by “G2 cells, % of GMNN control”, descending.
SCAMP2 #2: G2 robust z-score = -0.379; G2 cells, % of GMNN control = 0.298
SCAMP2 #1: G2 robust z-score = -0.742; G2 cells, % of GMNN control = -2.26

Continued.
NIPAL3 #1 showed G2 robust z-score -0.554; G2 cells, % of GMNN control -0.934.
Against NIPAL3 #2, the values are G2 robust z-score 2.95; G2 cells, % of GMNN control 23.7.
Silencing of NIPAL3 #3 came out at: G2 robust z-score 0.148; G2 cells, % of GMNN control 4.01.
After knock-down of NIPSNAP1 #1 the results were G2 robust z-score 0.597; G2 cells, % of GMNN control 7.17.
Knock-down of NIPSNAP1 #2 came out at: G2 robust z-score 0.00392; G2 cells, % of GMNN control 3.
For NIPSNAP1 #3, the values are G2 robust z-score 0.384; G2 cells, % of GMNN control 5.67.
